Laboratory results taken from paper PMC12705702, “Structural insights into the atypical filament assembly of pyrin domain-containing IFI16” (The EMBO Journal, 2025).
Results are given in words; binding and its absence hold for the method and conditions named.

Protein sequences, listed by entry. Tags and fused reporters are not part of them.
UniProt Q16666: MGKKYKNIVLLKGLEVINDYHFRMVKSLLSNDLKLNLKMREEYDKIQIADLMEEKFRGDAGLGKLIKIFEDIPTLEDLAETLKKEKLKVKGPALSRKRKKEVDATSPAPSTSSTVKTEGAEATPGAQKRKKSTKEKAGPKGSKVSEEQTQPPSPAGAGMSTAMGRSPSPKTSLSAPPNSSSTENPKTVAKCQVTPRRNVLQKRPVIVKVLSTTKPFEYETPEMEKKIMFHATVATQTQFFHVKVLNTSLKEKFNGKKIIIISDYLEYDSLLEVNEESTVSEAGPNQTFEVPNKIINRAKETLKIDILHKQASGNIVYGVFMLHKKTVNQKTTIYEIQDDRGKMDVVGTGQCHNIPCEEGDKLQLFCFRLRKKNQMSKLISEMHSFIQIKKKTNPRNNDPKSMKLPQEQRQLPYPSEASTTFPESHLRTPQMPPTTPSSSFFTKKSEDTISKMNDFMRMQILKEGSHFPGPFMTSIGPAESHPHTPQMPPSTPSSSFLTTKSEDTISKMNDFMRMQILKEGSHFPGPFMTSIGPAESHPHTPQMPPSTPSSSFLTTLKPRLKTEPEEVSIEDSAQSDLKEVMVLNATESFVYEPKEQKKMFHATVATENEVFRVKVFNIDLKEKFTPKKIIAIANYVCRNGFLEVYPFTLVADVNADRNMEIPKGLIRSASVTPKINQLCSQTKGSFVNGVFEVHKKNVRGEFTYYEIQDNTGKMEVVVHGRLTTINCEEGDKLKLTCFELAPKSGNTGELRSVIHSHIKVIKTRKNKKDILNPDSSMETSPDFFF

Target: T1, recombinant full-length AIM2 (AIM2^FL), donor-labeled (UniProt O14862)
T1 sequence (chain, donor-labeled (fluorophore for FRET)): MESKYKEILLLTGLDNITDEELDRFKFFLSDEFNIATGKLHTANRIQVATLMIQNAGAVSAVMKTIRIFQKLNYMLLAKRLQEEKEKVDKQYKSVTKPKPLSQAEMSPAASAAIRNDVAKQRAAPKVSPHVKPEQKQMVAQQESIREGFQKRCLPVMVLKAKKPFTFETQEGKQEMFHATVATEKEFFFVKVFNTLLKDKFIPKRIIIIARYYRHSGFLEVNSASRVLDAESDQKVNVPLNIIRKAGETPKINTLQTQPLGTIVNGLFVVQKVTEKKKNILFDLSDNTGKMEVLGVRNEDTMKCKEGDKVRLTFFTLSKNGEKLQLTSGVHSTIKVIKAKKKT
Assay: FRET or BRET; donor-labeled recombinant AIM2^FL and acceptor-labeled recombinant IFI16^FL; change in FRET ratio in the presence and absence of 600-bp dsDNA (10 µg/ml); both purified

binding: no binding
Substance: recombinant full-length IFI16 (IFI16^FL), acceptor-labeled (from UniProt Q16666 1-785)
